Assay results: article PMC11085213, “Plastid Molecular Chaperone HSP90C Interacts with the SecA1 Subunit of Sec Translocase for Thylakoid Protein Transport” (Plants, 2024)

Protein sequences, listed by entry. Tags and fused reporters are not part of them. Lines headed by an entry give the natural chain unless they say otherwise; changes in a name come on top. Residues count along the entry.
UniProt Q9SYI0, residues 73-1022: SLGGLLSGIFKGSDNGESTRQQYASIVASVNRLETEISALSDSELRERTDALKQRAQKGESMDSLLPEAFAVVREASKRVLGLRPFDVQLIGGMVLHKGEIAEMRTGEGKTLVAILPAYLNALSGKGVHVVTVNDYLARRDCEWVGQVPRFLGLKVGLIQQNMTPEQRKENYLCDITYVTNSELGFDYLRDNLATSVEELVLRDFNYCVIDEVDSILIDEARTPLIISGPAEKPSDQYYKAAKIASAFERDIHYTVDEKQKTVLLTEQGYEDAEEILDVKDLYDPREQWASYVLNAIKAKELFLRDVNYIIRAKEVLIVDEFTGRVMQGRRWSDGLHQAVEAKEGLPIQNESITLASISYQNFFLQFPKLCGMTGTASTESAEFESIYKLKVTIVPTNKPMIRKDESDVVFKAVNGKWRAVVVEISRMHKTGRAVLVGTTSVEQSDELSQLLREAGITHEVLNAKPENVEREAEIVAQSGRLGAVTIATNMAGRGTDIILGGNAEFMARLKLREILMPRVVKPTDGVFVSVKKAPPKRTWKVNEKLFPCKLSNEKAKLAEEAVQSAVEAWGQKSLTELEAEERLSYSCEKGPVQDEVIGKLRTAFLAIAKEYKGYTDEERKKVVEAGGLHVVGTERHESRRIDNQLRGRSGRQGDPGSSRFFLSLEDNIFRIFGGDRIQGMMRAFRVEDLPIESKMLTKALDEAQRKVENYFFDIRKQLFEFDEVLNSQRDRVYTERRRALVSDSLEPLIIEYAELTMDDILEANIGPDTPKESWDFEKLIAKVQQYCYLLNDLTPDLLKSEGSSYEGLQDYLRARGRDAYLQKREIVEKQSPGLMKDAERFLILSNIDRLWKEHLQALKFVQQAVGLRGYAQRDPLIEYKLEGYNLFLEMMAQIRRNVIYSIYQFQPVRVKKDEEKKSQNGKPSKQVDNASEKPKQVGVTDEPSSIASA
UniProt P23321: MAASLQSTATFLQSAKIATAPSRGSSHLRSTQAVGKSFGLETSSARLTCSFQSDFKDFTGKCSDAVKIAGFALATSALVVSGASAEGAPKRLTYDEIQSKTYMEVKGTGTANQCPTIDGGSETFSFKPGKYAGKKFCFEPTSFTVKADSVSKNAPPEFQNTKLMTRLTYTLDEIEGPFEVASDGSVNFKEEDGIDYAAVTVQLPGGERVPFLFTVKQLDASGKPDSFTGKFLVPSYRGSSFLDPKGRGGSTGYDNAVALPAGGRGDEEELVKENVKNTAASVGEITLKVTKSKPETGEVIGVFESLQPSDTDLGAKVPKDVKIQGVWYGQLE

Molecular target: SecA1-n/cYFP (Arabidopsis) (UniProt Q9SYI0)
Assay: split reporter; YFP N- and C-half fusions transiently co-expressed in N. benthamiana mesophyll cells, confocal imaging of chloroplasts after 48 h; some samples treated with 10 mM sodium azide or 30 μM geldanamycin before imaging

“PsbO1^1–332-n/cYFP (from UniProt P23321)” was tested, and the binding was “binds”.

These are yes or no findings as the source states them, for the method shown. In cells and extracts the contact can be indirect. A result given as binding can be weak or reduced; the word gives no strength.
